Measurements reported in PubChem BioAssay AID1159578 (Peter MacCallum Cancer Centre, 2015).

- Purpose: 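Genome-wide hunt for genes controlling movement of lymphatic endothelial cells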 (primary screen)
- Cell system: human lymphatic endothelial cells
- Reagents: siRNA pool against human genes, 40 nM
- Time to read-out: 48 h after transfection
- Measurement: 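Cells stained with dye and imaged after a scratch; covered wound area and nuclei counted, duplicates averaged, migration set against mock wells and turned into a robust z-score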
- Scale: migration robust z-score: higher = faster migration into the scratch; nuclei per well: higher = more cells in the well
- Active means: 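Migration changed when robust z exceeds 2 or falls below -2 and mean nuclei number is at least 3300; otherwise not called changed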
- Meaning of the calls: active = migration changed; inactive = no migration change, or too few cells
This is an unselected part of about 18,000 reagents tested. About 1,030 of them (5.7%) count as active. 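Inactive calls also include pools with fewer than 3300 nuclei, whose migration was not assessed.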 Raw values are not corrected between plates. A number with no mark means an inactive call. Not all columns of the deposit are shown.

no.	target	migration robust z-score	migration class with cell-count check	nuclei per well, duplicate mean
1	EIF1AD	0.52	migration z between -2 and 2; enough cells	5585
2	GLYATL1	0.88	under 3300 nuclei; migration not judged	3238
3	PARP9	-0.75	migration z between -2 and 2; enough cells	5476
4	PKD1L1-AS1	-0.93	migration z between -2 and 2; enough cells	3838
5	LMO4	1.17	migration z between -2 and 2; enough cells	5170
6	WNT2	0.06	migration z between -2 and 2; enough cells	6128
7	CDH15	-0.62	migration z between -2 and 2; enough cells	5221
8	NAT10	0.1	migration z between -2 and 2; enough cells	5817
9	TAP2	0.83	migration z between -2 and 2; enough cells	5540
10	NPS	0.84	migration z between -2 and 2; enough cells	6097
11	PACS2	0.17	migration z between -2 and 2; enough cells	6300
12	TP53I11	-2.8 (active)	migration z below -2; enough cells	5722
13	TNPO1	-0.8	migration z between -2 and 2; enough cells	5473
14	TCEAL8	-1.29	migration z between -2 and 2; enough cells	5830
15	RBMY1F	-0.82	migration z between -2 and 2; enough cells	5058
16	DNAJB14	1.35	migration z between -2 and 2; enough cells	6270
17	TTC1	0.76	migration z between -2 and 2; enough cells	4886
18	CABCOCO1	-0.15	migration z between -2 and 2; enough cells	5648
19	PILRB	0.8	migration z between -2 and 2; enough cells	6392
20	CYFIP1	0.04	migration z between -2 and 2; enough cells	5000
21	MYCN	-0.35	migration z between -2 and 2; enough cells	7467
22	ZBTB16	-4.93	under 3300 nuclei; migration not judged	2154
23	NDUFC1	-1.05	migration z between -2 and 2; enough cells	5554
24	PPY	-2.23 (active)	migration z below -2; enough cells	3958
25	ROCK2	-0.02	migration z between -2 and 2; enough cells	5218
26	SRRM4	0.28	migration z between -2 and 2; enough cells	5484
27	ZSCAN4	-0.96	migration z between -2 and 2; enough cells	5521
28	ZNF354C	0.19	migration z between -2 and 2; enough cells	5989
29	UBE3A	-0.1	migration z between -2 and 2; enough cells	5166
30	XPA	-0.1	migration z between -2 and 2; enough cells	5833

Next part; the last 6 above are carried over.
no.	target	migration robust z-score	migration class with cell-count check	nuclei per well, duplicate mean
25	ROCK2	-0.02	migration z between -2 and 2; enough cells	5218
26	SRRM4	0.28	migration z between -2 and 2; enough cells	5484
27	ZSCAN4	-0.96	migration z between -2 and 2; enough cells	5521
28	ZNF354C	0.19	migration z between -2 and 2; enough cells	5989
29	UBE3A	-0.1	migration z between -2 and 2; enough cells	5166
30	XPA	-0.1	migration z between -2 and 2; enough cells	5833
31	TAF2	-0.1	migration z between -2 and 2; enough cells	5258
32	TLX3	-1.39	migration z between -2 and 2; enough cells	5140
33	SELENOK	-0.05	migration z between -2 and 2; enough cells	6038
34	SLC35E2A	-2.05 (active)	migration z below -2; enough cells	4761
35	NLGN2	0.13	migration z between -2 and 2; enough cells	6034
36	GTF2H4	-0.44	migration z between -2 and 2; enough cells	5736
37	LCN8	-0.16	migration z between -2 and 2; enough cells	4404
38	POLR3A	0.39	migration z between -2 and 2; enough cells	5268
39	PRR21	-3.68 (active)	migration z below -2; enough cells	3550
40	FOXN2	-0.11	migration z between -2 and 2; enough cells	5889
41	DEAF1	-0.22	migration z between -2 and 2; enough cells	5602
42	NEK10	0.38	migration z between -2 and 2; enough cells	5877
43	FAT2	-0.11	migration z between -2 and 2; enough cells	4570
44	KIF20A	-0.52	migration z between -2 and 2; enough cells	5683
45	SLC35F4	0.42	migration z between -2 and 2; enough cells	5364
46	MBTPS1	0.21	migration z between -2 and 2; enough cells	5168
47	PFKFB4	-0.02	migration z between -2 and 2; enough cells	5055
48	P4HB	0.32	migration z between -2 and 2; enough cells	5886
49	SMAD1	1.15	migration z between -2 and 2; enough cells	5010
50	ZNF74	-0.06	migration z between -2 and 2; enough cells	6597
51	SLC5A3	1.58	migration z between -2 and 2; enough cells	5552
52	CDH3	2.12 (active)	migration z above 2; enough cells	6326
53	ZNF395	0.11	migration z between -2 and 2; enough cells	5802
54	COL5A2	0.04	migration z between -2 and 2; enough cells	5738
55	WDR13	-0.38	migration z between -2 and 2; enough cells	6790
56	ALAS2	-2.77 (active)	migration z below -2; enough cells	4503
57	ZNF226	-0.2	migration z between -2 and 2; enough cells	5980
